Data as given in paper PMC3176292.
No constants are given. Whether binding was seen depends on the method and setting. In cells and extracts the contact can be indirect. Some binding calls cover weakened binding; strength is not graded here. For part of these data: Tags and fused reporters may be left off the sequences shown.

The chains behind the UniProt entries cited, without tags or fusion partners. Where a name states a change or a piece, a line headed by the entry shows the natural chain unless it says otherwise. A line that says so, or that is headed by a name, gives the form on record, which may keep a tag or linker. Residues count along the entry.
UniProt Q92793, residues 1940-1998: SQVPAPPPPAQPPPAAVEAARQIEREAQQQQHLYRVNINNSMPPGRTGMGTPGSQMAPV
UniProt P10085: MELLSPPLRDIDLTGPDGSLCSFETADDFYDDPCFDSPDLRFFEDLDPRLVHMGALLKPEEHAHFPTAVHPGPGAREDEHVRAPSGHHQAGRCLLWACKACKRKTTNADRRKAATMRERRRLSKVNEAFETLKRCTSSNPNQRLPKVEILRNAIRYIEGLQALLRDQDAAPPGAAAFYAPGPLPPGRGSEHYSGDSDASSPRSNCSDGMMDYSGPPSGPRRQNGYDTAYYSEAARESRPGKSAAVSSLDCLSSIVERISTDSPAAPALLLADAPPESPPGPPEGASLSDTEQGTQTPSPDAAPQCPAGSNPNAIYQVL
UniProt O35625: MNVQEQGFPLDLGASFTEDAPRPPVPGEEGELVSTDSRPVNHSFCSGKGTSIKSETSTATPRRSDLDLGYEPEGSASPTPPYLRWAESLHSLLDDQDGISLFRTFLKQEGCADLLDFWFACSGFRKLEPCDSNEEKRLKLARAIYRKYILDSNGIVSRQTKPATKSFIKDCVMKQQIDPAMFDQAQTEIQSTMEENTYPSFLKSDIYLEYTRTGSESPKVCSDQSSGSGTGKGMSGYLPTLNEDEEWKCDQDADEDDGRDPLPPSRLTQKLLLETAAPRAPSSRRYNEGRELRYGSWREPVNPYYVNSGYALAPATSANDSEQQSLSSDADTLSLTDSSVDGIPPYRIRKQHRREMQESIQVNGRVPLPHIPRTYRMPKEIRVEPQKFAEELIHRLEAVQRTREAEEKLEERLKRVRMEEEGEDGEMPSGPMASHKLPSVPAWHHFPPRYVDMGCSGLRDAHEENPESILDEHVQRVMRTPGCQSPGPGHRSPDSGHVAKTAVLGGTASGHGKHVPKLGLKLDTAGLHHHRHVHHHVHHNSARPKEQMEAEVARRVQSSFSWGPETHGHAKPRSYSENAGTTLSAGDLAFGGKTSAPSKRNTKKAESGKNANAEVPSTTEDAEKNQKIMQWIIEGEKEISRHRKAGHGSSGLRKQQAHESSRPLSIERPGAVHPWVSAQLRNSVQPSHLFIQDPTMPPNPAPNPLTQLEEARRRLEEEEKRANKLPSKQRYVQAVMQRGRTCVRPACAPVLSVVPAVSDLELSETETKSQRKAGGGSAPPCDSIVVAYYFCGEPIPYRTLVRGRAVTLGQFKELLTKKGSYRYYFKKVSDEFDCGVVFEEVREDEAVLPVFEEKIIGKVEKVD
UniProt Q06413, residues 1-302: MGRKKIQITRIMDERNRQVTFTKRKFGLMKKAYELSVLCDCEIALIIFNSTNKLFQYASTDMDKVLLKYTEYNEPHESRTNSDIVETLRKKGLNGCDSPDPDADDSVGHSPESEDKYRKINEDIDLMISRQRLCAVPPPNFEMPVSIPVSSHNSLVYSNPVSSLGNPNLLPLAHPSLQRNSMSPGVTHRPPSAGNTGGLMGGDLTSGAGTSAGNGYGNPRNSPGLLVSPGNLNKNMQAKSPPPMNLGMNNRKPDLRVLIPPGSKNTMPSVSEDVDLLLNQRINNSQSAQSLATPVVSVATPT
UniProt O43524, residues 153-249: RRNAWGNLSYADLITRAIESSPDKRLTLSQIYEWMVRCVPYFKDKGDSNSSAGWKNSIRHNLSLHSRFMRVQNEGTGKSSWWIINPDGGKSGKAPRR
UniProt P84022: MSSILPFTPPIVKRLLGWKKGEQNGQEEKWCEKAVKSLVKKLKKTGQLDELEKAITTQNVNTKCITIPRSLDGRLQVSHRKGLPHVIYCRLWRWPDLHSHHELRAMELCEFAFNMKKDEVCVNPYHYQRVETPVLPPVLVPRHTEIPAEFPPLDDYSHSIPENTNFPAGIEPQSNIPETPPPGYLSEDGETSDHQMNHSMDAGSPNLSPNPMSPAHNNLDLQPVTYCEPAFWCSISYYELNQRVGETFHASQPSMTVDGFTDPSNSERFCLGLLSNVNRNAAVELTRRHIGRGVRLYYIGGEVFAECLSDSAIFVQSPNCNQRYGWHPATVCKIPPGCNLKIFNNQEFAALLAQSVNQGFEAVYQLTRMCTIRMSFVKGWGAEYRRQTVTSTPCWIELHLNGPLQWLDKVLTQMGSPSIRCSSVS
Renilla luciferase-Smad3 QPSMT/SE mutant (residues 252–256 and 266–267 changed to the Smad1 equivalents STSVL/NKN) (P84022, form named): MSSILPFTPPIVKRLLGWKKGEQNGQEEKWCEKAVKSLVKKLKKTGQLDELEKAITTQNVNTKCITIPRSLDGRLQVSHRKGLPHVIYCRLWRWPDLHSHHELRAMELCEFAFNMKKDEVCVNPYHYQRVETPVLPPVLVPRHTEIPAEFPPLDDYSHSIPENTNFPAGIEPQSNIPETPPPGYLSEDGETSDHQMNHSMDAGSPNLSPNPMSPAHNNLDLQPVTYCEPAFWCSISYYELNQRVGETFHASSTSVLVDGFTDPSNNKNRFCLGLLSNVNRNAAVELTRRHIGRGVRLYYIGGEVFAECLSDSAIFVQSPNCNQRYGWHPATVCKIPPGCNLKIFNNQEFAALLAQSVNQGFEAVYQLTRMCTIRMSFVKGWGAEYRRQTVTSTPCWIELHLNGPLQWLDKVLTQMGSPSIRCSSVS

Experiments:
Test in all cases: co-IP; LUMIER: Renilla luciferase-Smad3 and Flag-tagged partner co-expressed with constitutively active Alk5 in HEK-293; Flag protein captured from cleared lysate (TNE: 10 mM Tris-HCl pH 7.8, 150 mM NaCl, 1 mM EDTA, 1% Igepal CA-630) on anti-Flag 96-well plates, 2 h at 4 °C; co-precipitated Renilla luciferase activity, TrxGA background subtracted, percent of wild-type Smad3
[1] = target: CBP Smad-binding peptide (amino acids 1940–1998) on the 3xFlag-thioredoxin scaffold (UniProt Q92793)
3XFlag-MyoD = 3XFlag-MyoD (UniProt P10085)
Flag-SARA, full length = target: T1, Flag-SARA, full length (UniProt O95405)
T1 sequence: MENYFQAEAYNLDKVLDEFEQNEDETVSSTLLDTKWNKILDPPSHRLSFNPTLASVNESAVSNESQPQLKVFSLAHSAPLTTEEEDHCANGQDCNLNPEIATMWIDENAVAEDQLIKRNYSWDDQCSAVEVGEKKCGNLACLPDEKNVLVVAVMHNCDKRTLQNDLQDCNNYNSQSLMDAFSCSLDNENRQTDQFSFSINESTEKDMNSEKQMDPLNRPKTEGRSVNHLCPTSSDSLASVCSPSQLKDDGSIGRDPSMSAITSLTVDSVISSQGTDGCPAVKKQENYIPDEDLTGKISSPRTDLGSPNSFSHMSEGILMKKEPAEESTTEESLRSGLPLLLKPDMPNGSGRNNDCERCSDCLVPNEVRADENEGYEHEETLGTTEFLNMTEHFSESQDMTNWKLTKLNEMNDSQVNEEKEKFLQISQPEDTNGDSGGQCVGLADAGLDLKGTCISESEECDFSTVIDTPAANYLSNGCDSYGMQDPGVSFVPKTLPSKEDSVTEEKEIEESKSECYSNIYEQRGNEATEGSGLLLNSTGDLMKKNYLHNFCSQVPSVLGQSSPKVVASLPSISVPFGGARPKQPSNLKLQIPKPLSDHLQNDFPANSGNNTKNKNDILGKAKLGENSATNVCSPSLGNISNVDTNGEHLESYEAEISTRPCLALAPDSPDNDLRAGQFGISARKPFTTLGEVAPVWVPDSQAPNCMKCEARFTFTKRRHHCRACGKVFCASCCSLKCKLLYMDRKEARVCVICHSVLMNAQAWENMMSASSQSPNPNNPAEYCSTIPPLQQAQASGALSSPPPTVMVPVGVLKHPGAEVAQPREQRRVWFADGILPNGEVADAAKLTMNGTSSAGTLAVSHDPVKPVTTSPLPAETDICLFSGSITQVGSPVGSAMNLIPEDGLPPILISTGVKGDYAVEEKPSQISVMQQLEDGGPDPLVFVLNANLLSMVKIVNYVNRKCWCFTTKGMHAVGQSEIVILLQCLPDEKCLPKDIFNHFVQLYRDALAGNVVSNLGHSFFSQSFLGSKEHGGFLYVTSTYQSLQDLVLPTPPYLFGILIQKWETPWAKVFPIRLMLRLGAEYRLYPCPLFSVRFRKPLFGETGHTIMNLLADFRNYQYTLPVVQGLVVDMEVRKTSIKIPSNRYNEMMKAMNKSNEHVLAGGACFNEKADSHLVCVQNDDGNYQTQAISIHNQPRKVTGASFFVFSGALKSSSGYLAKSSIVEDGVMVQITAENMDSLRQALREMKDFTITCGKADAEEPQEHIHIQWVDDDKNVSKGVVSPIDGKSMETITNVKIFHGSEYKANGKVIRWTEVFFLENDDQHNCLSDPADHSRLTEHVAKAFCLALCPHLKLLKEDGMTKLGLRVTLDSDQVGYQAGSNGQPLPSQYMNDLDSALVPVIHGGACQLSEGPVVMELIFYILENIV

Flag-mAxin (mouse) = Flag-mAxin (mouse) (UniProt O35625)
[2] = target: Flag-hMEF2C(1-302) (human) (UniProt Q06413)
[3] = target: T2, Flag-SkiW274E, full length (UniProt P12755)
T2 sequence: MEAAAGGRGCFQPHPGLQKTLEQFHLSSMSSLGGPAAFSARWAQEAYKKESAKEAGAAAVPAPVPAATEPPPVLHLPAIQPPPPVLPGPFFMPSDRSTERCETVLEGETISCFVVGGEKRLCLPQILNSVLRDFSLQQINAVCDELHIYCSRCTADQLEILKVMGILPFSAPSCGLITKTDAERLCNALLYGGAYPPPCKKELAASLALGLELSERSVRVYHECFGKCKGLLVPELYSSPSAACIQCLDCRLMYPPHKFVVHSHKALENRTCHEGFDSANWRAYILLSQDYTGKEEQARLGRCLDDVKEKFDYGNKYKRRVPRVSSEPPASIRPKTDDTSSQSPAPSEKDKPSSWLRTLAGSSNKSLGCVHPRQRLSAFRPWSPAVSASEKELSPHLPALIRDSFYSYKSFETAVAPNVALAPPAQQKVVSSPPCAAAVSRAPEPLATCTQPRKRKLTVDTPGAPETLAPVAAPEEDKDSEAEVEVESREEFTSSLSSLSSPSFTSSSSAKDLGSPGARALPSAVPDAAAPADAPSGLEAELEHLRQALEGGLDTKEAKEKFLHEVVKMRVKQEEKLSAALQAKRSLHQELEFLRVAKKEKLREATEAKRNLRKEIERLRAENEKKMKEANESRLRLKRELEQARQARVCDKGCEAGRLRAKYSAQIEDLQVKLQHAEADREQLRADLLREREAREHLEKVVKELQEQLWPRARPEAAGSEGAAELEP

[4] = target: T3, SIP1 Smad-binding domain (amino acids 315–487) on the 3xFlag-thioredoxin scaffold (UniProt Q9R0G7)
T3 sequence: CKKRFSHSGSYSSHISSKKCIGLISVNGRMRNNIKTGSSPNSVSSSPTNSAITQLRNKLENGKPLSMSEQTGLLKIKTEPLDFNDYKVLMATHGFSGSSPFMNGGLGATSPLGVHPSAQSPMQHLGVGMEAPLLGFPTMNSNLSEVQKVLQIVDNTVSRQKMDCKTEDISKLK

[5] = target: T4, SRF Smad-binding domain (amino acids 132–223) on the 3xFlag-thioredoxin scaffold (UniProt P11831)
T4 sequence: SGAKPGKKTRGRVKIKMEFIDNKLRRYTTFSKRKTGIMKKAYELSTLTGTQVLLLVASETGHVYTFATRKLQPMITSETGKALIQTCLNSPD

[6] = target: T5, ATF3 Smad-binding peptide (amino acids 61–111) on the 3xFlag-thioredoxin scaffold (UniProt P18847)
T5 sequence: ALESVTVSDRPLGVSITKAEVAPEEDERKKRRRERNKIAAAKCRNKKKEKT

[7] = target: FoxO3 Smad-binding domain (amino acids 153–249) on the 3xFlag-thioredoxin scaffold (UniProt O43524)

Row | Substance | binding [1] | binding (3XFlag-MyoD) | binding (Flag-SARA, full length) | binding (Flag-mAxin (mouse)) | binding [2] | binding [3] | binding [4] | binding [5] | binding [6] | binding [7]
1 | Renilla luciferase-Smad3 D408H (from UniProt P84022 1-425) | – | binds | – | binds | binds | – | – | binds | binds | –
2 | Renilla luciferase-Smad3 K341A (from UniProt P84022 1-425) | binds | – | – | – | – | – | – | – | – | –
3 | Renilla luciferase-Smad3 V224A (from UniProt P84022 1-425) | – | binds | – | binds | binds | – | – | binds | – | –
4 | Renilla luciferase-Smad3 V356R (from UniProt P84022 1-425) | – | binds | – | binds | binds | – | – | binds | – | –
5 | Renilla luciferase-Smad3 W406A (from UniProt P84022 1-425) | binds | binds | – | binds | binds | – | – | binds | – | –

Further lines, results first:

Row | binding [1] | binding (3XFlag-MyoD) | binding (Flag-SARA, full length) | binding (Flag-mAxin (mouse)) | binding [2] | binding [3] | binding [4] | binding [5] | binding [6] | binding [7] | Substance
6 | binds | binds | binds | binds | binds | binds | binds | binds | binds | binds | Renilla luciferase-Smad3 wild type, co-expressed with constitutively active Alk5 (phosphorylated Smad3) (from UniProt P84022 1-425)
7 | – | – | – | – | – | binds | – | – | – | – | Renilla luciferase-Smad3 QPSMT/SE mutant (residues 252–256 and 266–267 changed to the Smad1 equivalents STSVL/NKN) (from UniProt P84022 1-425)
8 | – | binds | – | binds | binds | – | – | binds | – | – | Renilla luciferase-Smad3 Y226A (from UniProt P84022 1-425)
9 | – | – | – | – | binds | – | – | – | – | binds | Renilla luciferase-Smad3 Y297A (from UniProt P84022 1-425)
